From PubChem BioAssay AID652054 (National Center for Advancing Translational Sciences (NCATS), 2013)
The campaign covered roughly 360,000 compounds. About 9,100 (2.5%) were called active. The inconclusive results got no clear call from the source; some entries with a clear call stand among them for comparison. No stated cut-off is given here; in the data, active means max response below about -50%; inconclusive means no clear call, values can overlap the other calls; inactive means above that.

Chains of the proteins cited; added tags and fusions are not shown.
UniProt P35462, whole entry, looked up: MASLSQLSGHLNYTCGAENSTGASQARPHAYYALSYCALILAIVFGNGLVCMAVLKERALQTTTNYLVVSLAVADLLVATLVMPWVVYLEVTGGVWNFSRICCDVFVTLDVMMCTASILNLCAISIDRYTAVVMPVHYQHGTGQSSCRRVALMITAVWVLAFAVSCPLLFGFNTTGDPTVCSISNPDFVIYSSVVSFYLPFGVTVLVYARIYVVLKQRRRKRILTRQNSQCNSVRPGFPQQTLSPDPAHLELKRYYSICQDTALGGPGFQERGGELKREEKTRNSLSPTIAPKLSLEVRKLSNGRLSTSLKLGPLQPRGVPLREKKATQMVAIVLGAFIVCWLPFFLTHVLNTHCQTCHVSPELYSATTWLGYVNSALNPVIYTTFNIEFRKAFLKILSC

What follows are molecules tested against D(3) dopamine receptor (Homo sapiens) (UniProt P35462) (assay: qHTS of D3 Dopamine Receptor Antagonist: qHTS). Conditions: D3R cells, DiscoveRx beta-arrestin luminescence, antagonist mode; stronger effect = lower value.
Method in brief: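 Cells plated overnight at 1500 cells/well, then exposed to library compounds with dopamine controls for 90 minutes at 37 degrees C. DiscoveRx reagent added for 30–60 minutes at room temperature; luminescence read, quantitative HTS format.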
On the % scale 0 is the no-effect control and ±100 the full control effect.

SMILES | max response, negative = inhibition
O=c1oc(-c2ccccc2F)nc2c1cnn2-c1ccccc1 | active: -64.5%
Cc1cccc(N2CCN(C(=O)COc3ccc4c(c3)CCC4)CC2C)c1 (stereo unspecified) | inactive: 8.64%
O=S(=O)(c1ccccc1)N1CCSC1c1ccco1 (stereo unspecified) | inactive: 3%
Cn1nc(C(=O)Nc2cccnc2)c2ccccc2c1=O | inactive: 9.3%
COc1ccc(C(NC(=O)CN2C(=O)NC3(CCc4ccccc43)C2=O)c2ccc(OC)cc2)cc1 (stereo unspecified) | inactive: -2.7%
CCOc1ccc(Br)cc1C(=S)N1CCCC1 | inactive: 1.62%
COc1cccc(OC)c1OCCNCC1COc2ccccc2O1 (stereo unspecified) | active: -93.7%
Cc1nc(NC(=O)C(C)(C)C)sc1-c1csc(N)n1 | inactive: 0%
C=CC(=O)Nc1ccc(Br)cc1 | inconclusive: -32.3%
O=C(C1CC(c2ccccc2O)=NO1)N1CCc2ccccc2C1 (stereo unspecified) | active: -94.8%
CCOC(=O)C1=C(C)N=c2s/c(=C\c3ccc(C(=O)O)cc3)c(=O)n2C1c1ccc(OC)cc1OC (stereo unspecified) | inconclusive: -48.7%
CCCCCc1cc(=O)oc2c(C(CCN3CCCC3)c3cc(OC)c(OC)c(OC)c3)c(OC)cc(OC)c12 (stereo unspecified) | active: -50.8%
CC1(C)CC2CC(C)(CN2S(=O)(=O)c2cccc(C(=O)O)c2)C1 (stereo unspecified) | inactive: 19.1%
COc1ccc(NC(=O)CSc2nnc(CNC(=O)c3ccco3)n2-c2ccccc2OC)cc1 | inconclusive: -47%
CC(C)CC1Nc2ccc(C(=O)NCCCN3CCOCC3)cc2NC1=O (stereo unspecified) | inactive: -22.2%
CN1CCN(c2ccc(Cl)cc2NC(=O)c2cccc(S(=O)(=O)N(C)C)c2)CC1 | inactive: 13.8%
O=C(/C=C/c1cccnc1)/C=C/c1cccnc1 | active: -102%
N#Cc1c(N)nc(SCC(=O)NCc2ccc3c(c2)OCO3)c(C#N)c1-c1cccs1 | inconclusive: -35.3%
COC(=O)c1ccccc1S(=O)(=O)N(CCCN1CCOCC1)Cc1cccs1 | inconclusive: -35.1%
Nc1ccc2c(c1)C(O)c1cccc(C(=O)O)c1-2 (stereo unspecified) | inactive: 6.95%
COc1ccc(NC(=O)CCN2CCN(Cc3ccccc3)CC2)c(OC)c1 | inconclusive: -31.8%

SMILES | max response, negative = inhibition
Cc1cc2c(OCC(O)CNCc3ccco3)cccc2[nH]1 (stereo unspecified) | inconclusive: -33.4%
CCC(C)c1ccccc1OCCCCN1CCCC1 (stereo unspecified) | active: -72.4%
Cc1cc(C)n(-c2nc3c(c(=O)[nH]c(=O)n3C)n2Cc2ccccc2)n1 | inconclusive: -39.6%
Cc1cc(-c2cn3ccccc3n2)c(C)n1-c1ccccc1 | inconclusive: -49.7%
CN(c1ccc(F)cc1)S(=O)(=O)c1ccc(Cl)c(C(=O)OCC(=O)NCc2ccco2)c1 | inactive: -18.4%
Cc1ccc(C)c(N(C(=O)Cn2nnc(-c3cccs3)n2)C(C(=O)NC2CCCC2)c2ccncc2)c1 (stereo unspecified) | inconclusive: -36.1%
Cc1ccc(NC(=O)Cc2sc(C)nc2-c2ccc(C)cc2)cc1 | inactive: 13.4%
O=C(Nc1cc(=O)[nH]c2ncnn12)c1ccccc1F | inconclusive: -34.6%
O=C(COc1cccc(F)c1)Oc1ccc(C(=O)c2ccccc2)cc1 | inconclusive: -45.5%
CN1c2ccc(C=O)c3c(C=O)ccc(c23)N(C)C1(C)C | inconclusive: -45.5%
Cc1c(OC(C)C(=O)NCC2CCC(C(=O)O)CC2)ccc2c(-c3ccccc3)cc(=O)oc12 (stereo unspecified) | inconclusive: -31.6%
CC1(C)CC(=O)C(N=Nc2ccc3ncsc3c2)=C(O)C1 | inconclusive: -32.8%
Fc1ccc(C(c2nnnn2Cc2ccco2)N2CCN(C3CCCCC3)CC2)cc1 (stereo unspecified) | inconclusive: -44.2%
CCN1CCN(CCCOc2ccc(-c3ccccc3)cc2)CC1 | inconclusive: -34.2%
COc1cc(/C=N/NC(=O)C(Cc2c[nH]c3ccccc23)NC(=O)OCC(C)C)cc([N+](=O)[O-])c1O (stereo unspecified) | inconclusive: -39.5%
Cc1ccc(C2NC(=O)c3sc(=S)n(-c4ccccc4)c3N2)cc1 (stereo unspecified) | inconclusive: -31%
O=C1C=Cc2cccc3ccc(O)c1c23 | inconclusive: -47%
CN(CCCN1CCCCC1)C(=O)c1cc(COc2ccc(F)cc2F)on1 | inconclusive: -35.2%
COc1ncccc1C(=O)N1CCCC(C(=O)Nc2cccc(-c3ccc(F)cc3)c2)C1 (stereo unspecified) | inactive: 13.9%
CC1=C(C)C(=O)N(c2ccccn2)C1=O | inactive: -25%
O=C(O)c1ccc(-c2nc3scc(-c4ccccc4)c3c(=O)[nH]2)cc1 | inactive: -25.4%
CC(C)Oc1ccc(C2CC(=O)N(Nc3ccc([N+](=O)[O-])cc3[N+](=O)[O-])C2=O)cc1 (stereo unspecified) | active: -50.5%

A section from further up, as a working copy:
SMILES | max response, negative = inhibition
O=c1oc(-c2ccccc2F)nc2c1cnn2-c1ccccc1 | active: -64.5%
Cc1cccc(N2CCN(C(=O)COc3ccc4c(c3)CCC4)CC2C)c1 (stereo unspecified) | inactive: 8.64%

The list goes on.

SMILES | max response, negative = inhibition
Cc1ccc(C(C)C)c(OCc2nn(CC(=O)c3ccc(OC(F)F)cc3)c3[n+]2CCCCC3)c1 | inactive: -6.61%
Cc1ccc(-c2[nH]ncc2CN2CCN(C(=O)c3cccs3)CC2)cc1C | inconclusive: -41.6%
COc1ccccc1NC(=O)COc1ccc(Br)cc1CNCCCN1CCOCC1 | inactive: -19.6%
Cc1cccc(N=Cc2cc(Br)cc(Cl)c2O)c1 | inconclusive: -47.8%
O=C1Nc2ccccc2-n2nnnc2C1N1CCN(c2ccc(C(F)(F)F)cc2[N+](=O)[O-])CC1 (stereo unspecified) | inconclusive: -31.5%
CN(c1ccccc1)S(=O)(=O)c1cc(C(=O)NCc2ccco2)ccc1Cl | inactive: 24%
COc1ccc2c(c1)C=C(CN1CCN(Cc3ccccc3C)C(CCO)C1)CO2 (stereo unspecified) | inconclusive: -37%
CCOc1ccc2[nH]c(=O)c(C(c3nnnn3Cc3ccco3)N3CCCC(C)C3)cc2c1 (stereo unspecified) | inactive: 0%
C#CCOCCOCCOCCNc1nc(N2CCN(C(=O)[C@H]([C@@H](C)CC)n3cc([C@@H](N)CC(C)C)nn3)CC2)nc(N2CCN(C(=O)[C@H](CCCCN)n3cc([C@@H](N)CO)nn3)CC2)n1 | inconclusive: -49.9%
CCC(C)(C)C1CCc2[nH]nc(C(=O)NCc3ccc(Cl)cc3)c2C1 (stereo unspecified) | active: -75%
CC(C)(C)/C(Cn1cncn1)=N\OC(=O)Nc1ccc(Cl)cc1 | inactive: 0.258%
Cc1cc(S(=O)(=O)NCc2ccc(N3CCN(C)CC3)cc2)c(C)s1 | active: -62.6%
CSc1cccc(CN2CCC(CCC(=O)NC3CC3)CC2)c1 | inconclusive: -37.2%
COC(=O)c1ccccc1NC(=O)c1ccc(COc2cccc3ccccc23)o1 | inconclusive: -37.6%
NC(Cc1ccc(Cl)cc1)c1csc(NC(=O)NCCc2ccccc2)n1 (stereo unspecified) | inactive: 11.4%
CCSc1nnc(-c2ccc(Cl)cc2)c2ccccc12 | inconclusive: -37.6%
Cc1ccc(CNC(=O)C2CCCN2S(=O)(=O)c2ccc(F)cc2)cc1 (stereo unspecified) | inactive: 14%
OCCNCCSc1nc(C2CCCCC2)n(-c2ccccc2Cl)n1 | inconclusive: -45.8%
O=C(NCCc1ccccc1)c1nc2c(nnn2Cc2ccccc2Cl)c(=O)[nH]1 | inactive: 30.8%
O=C(/C=C1\NC2(CCCC2)Cc2ccccc21)C(=O)N/N=C/c1ccc(O)c(O)c1 | inconclusive: -30.7%
CCN1CCN(Cc2c(O)ccc3c2O/C(=C\C=C\c2ccccc2OC)C3=O)CC1 | inconclusive: -38.1%
O=c1c2c(nc(NCCO)n1CC1CCCCC1)-c1ccccc1CC21CCCC1 | inactive: -1.79%

In the list so far, 2 have a tert-butyl group.
SMILES | max response, negative = inhibition
Cc1nc(NC(=O)C(C)(C)C)sc1-c1csc(N)n1 | inactive: 0%
CC(C)(C)/C(Cn1cncn1)=N\OC(=O)Nc1ccc(Cl)cc1 | inactive: 0.258%

Next results:

SMILES | max response, negative = inhibition
CCN(CC)CCCNC(=O)c1cc(-c2ccccc2)c(N2CCCCC2)s1 | inconclusive: -30.2%
CCN(CC)c1ncnc2c1ncn2[C@H]1CN(Cc2ccc(OC)cc2)C[C@@H](CO)O1 | inconclusive: -38.3%
O=C(NCCN1CCN(c2ccccc2F)CC1)C1c2ccccc2C(=O)N2CCc3ccccc3C12 (stereo unspecified) | active: -56.6%
Cc1cc(C)c(OCCCCN(C)Cc2ccccc2)c(C)c1 | inconclusive: -34.3%
O=C(C[C@@H]1C/C=C\CCC(=O)O[C@H](c2ccccc2)CNC1=O)N[C@H](CO)Cc1ccccc1 | inconclusive: -37.1%
O=C1C=C(Nc2ccccc2)c2ccccc2C1=O | inconclusive: -44.5%
CCOc1cc(C=C(C(=O)OC)C(=O)OC)ccc1OCc1ccc([N+](=O)[O-])cc1 | inconclusive: -31%
Cc1cccc(NC(=O)C(C)N2C(=O)C3C4CC(C(Br)C4Br)C3C2=O)c1 (stereo unspecified) | inconclusive: -37.5%
Cc1nc(N2CCC(C)CC2)c2c(C)c(C(=O)O)sc2n1 | inconclusive: -32.1%
COc1cc(C(CCN2CCCC(C)C2)c2c(OC)cc(OC)c3c2OC(=O)CC3c2ccc(N(C)C)cc2)cc(OC)c1OC (stereo unspecified) | active: -59.5%
Cc1ccc(CN(Cc2ccco2)C(=S)NCC(=O)NCc2cccnc2)cc1 | inactive: -2.54%
COCCn1nnnc1C(c1cc2cc(C)cc(C)c2[nH]c1=O)N1CCN(c2ccccc2F)CC1 (stereo unspecified) | inconclusive: -47.8%
C=CCN1C(=O)C(Cc2ccc(F)cc2)S/C1=N/N=C/c1cccs1 (stereo unspecified) | inconclusive: -31.9%
CCC(=O)Nc1ccc(C(=O)Cn2ncc(Cl)c(Cl)c2=O)cc1 | inconclusive: -45.8%
O=C(CC(=O)c1c(F)cccc1Cl)c1ccccc1O | inactive: -22.1%
COc1ccc(CNC(C)C2COc3ccccc3O2)c(OC)c1 (stereo unspecified) | inconclusive: -31.5%
Cn1c(=O)n(C)c2cc(CNC(=O)[C@H]3O[C@@H](n4ccc(=O)[nH]c4=O)[C@H](O)[C@@H]3O)ccc21 | inactive: 10.4%
COc1cccc(N2CCN(Cc3cccnc3)CC2)c1 | inconclusive: -38.5%
O=c1c2ccccc2nc2n1CCS2(=O)=O | inconclusive: -33.7%
COc1ccc(NC(=O)c2cc(=O)c3ccccc3o2)cc1Cl | inactive: -13.4%
